Assay results: PubChem BioAssay AID186 (DTP/NCI, 2004)
Values are animals surviving of animals treated; these mice carried no tumour. Survivors were counted at the toxicity check, usually on the fifth day, unless a day is given; later deaths do not show. Schedule codes are those of the source, taken here to give the interval after Q, in days (D) or hours (H), and the number of doses after X.

System: B6D2F1 mice, nontumored toxicity test, survival
Assay: NCI In Vivo Anticancer Drug Screen. Data for tumor model Nontumored Animals (Toxicity Test) in B6D2F1 (BDF1) mice
Settings: vehicle: water

## OC(CCl)CN1CC[N+]2(CC1)CC[N+]1(CCN(CC(O)CCl)CC1)CC2 (stereo not given)
dose: 4.0 mg/kg/injection, schedule: Q03HX024 (ip)
  survivor count: 8 of 8
dose: 8.0 mg/kg/injection, schedule: Q03HX016 (ip)
  survivor count: 8 of 8
dose: 8.0 mg/kg/injection, schedule: Q03HX024 (ip)
  survivor count: 8 of 8
dose: 16.0 mg/kg/injection, schedule: Q01DX009 (ip)
  survivor count: 8 of 8
dose: 16.0 mg/kg/injection, schedule: Q03HX008 (ip)
  survivor count: 8 of 8
dose: 16.0 mg/kg/injection, schedule: Q03HX016 (ip)
  survivor count: 7 of 7
dose: 16.0 mg/kg/injection, schedule: Q03HX024 (ip)
  survivor count: 8 of 8
dose: 32.0 mg/kg/injection, schedule: Q01DX005 (ip)
  survivor count: 8 of 8
dose: 32.0 mg/kg/injection, schedule: Q01DX009 (ip)
  survivor count: 8 of 8
dose: 32.0 mg/kg/injection, schedule: Q03HX008 (ip)
  survivor count: 8 of 8
dose: 32.0 mg/kg/injection, schedule: Q03HX016 (ip)
  survivor count: 8 of 8
dose: 32.0 mg/kg/injection, schedule: Q03HX024 (ip)
  survivor count: 8 of 8
dose: 32.0 mg/kg/injection, schedule: Q04DX003 (ip)
  survivor count: 8 of 8
dose: 64.0 mg/kg/injection, schedule: Q01DX001 (ip)
  survivor count: 8 of 8
dose: 64.0 mg/kg/injection, schedule: Q01DX001 (oral)
  survivor count: 8 of 8
dose: 64.0 mg/kg/injection, schedule: Q01DX005 (ip)
  survivor count: 8 of 8
dose: 64.0 mg/kg/injection, schedule: Q01DX009 (ip)
  survivor count: 8 of 8
dose: 64.0 mg/kg/injection, schedule: Q01DX009 (oral)
  survivor count: 8 of 8
dose: 64.0 mg/kg/injection, schedule: Q03HX008 (ip)
  survivor count: 8 of 8
dose: 64.0 mg/kg/injection, schedule: Q03HX016 (ip)
  survivor count: 8 of 8
dose: 64.0 mg/kg/injection, schedule: Q03HX024 (ip)
  survivor count: 8 of 8
dose: 64.0 mg/kg/injection, schedule: Q04DX003 (ip)
  survivor count: 8 of 8
dose: 64.0 mg/kg/injection, schedule: Q08DX002 (ip)
  survivor count: 8 of 8
dose: 128.0 mg/kg/injection, schedule: Q01DX001 (ip)
  survivor count: 8 of 8
dose: 128.0 mg/kg/injection, schedule: Q01DX001 (oral)
  survivor count: 8 of 8
dose: 128.0 mg/kg/injection, schedule: Q01DX005 (ip)
  survivor count: 8 of 8
dose: 128.0 mg/kg/injection, schedule: Q01DX009 (ip)
  survivor count: 8 of 8
dose: 128.0 mg/kg/injection, schedule: Q01DX009 (oral)
  survivor count: 8 of 8
dose: 128.0 mg/kg/injection, schedule: Q03HX008 (ip)
  survivor count: 8 of 8
dose: 128.0 mg/kg/injection, schedule: Q03HX016 (ip)
  survivor count: 8 of 8
dose: 128.0 mg/kg/injection, schedule: Q04DX003 (ip)
  survivor count: 8 of 8
dose: 128.0 mg/kg/injection, schedule: Q08DX002 (ip)
  survivor count: 8 of 8
dose: 256.0 mg/kg/injection, schedule: Q01DX001 (ip)
  survivor count: 8 of 8
dose: 256.0 mg/kg/injection, schedule: Q01DX001 (oral)
  survivor count: 8 of 8
dose: 256.0 mg/kg/injection, schedule: Q01DX005 (ip)
  survivor count: 8 of 8
dose: 256.0 mg/kg/injection, schedule: Q01DX009 (ip)
  survivor count: 8 of 8
dose: 256.0 mg/kg/injection, schedule: Q01DX009 (oral)
  survivor count: 8 of 8
dose: 256.0 mg/kg/injection, schedule: Q03HX008 (ip)
  survivor count: 0 of 8
dose: 256.0 mg/kg/injection, schedule: Q04DX003 (ip)
  survivor count: 8 of 8
dose: 256.0 mg/kg/injection, schedule: Q08DX002 (ip)
  survivor count: 8 of 8
dose: 512.0 mg/kg/injection, schedule: Q01DX001 (ip)
  survivor count: 8 of 8
dose: 512.0 mg/kg/injection, schedule: Q01DX001 (oral)
  survivor count: 8 of 8
dose: 512.0 mg/kg/injection, schedule: Q01DX005 (ip)
  survivor count: 4 of 8
dose: 512.0 mg/kg/injection, schedule: Q01DX009 (oral)
  survivor count: 8 of 8
dose: 512.0 mg/kg/injection, schedule: Q04DX003 (ip)
  survivor count: 8 of 8
dose: 512.0 mg/kg/injection, schedule: Q08DX002 (ip)
  survivor count: 8 of 8
dose: 1024.0 mg/kg/injection, schedule: Q01DX001 (ip)
  survivor count: 7 of 8
dose: 1024.0 mg/kg/injection, schedule: Q01DX001 (oral)
  survivor count: 8 of 8
dose: 1024.0 mg/kg/injection, schedule: Q01DX009 (oral)
  survivor count: 8 of 8
dose: 1024.0 mg/kg/injection, schedule: Q08DX002 (ip)
  survivor count: 8 of 8
